Source: paper PMC10259029
These are yes or no findings as the source states them, for the method shown. Binding seen in cells or lysates may run through a third protein. Some results given as binding are weak or reduced against the parent protein; the word gives no strength. Tags and fused reporters may be left off the sequences shown.

The chains behind the UniProt entries cited, without tags or fusion partners. Residues count along the entry.
UniProt Q9NZQ7, residues 19-290: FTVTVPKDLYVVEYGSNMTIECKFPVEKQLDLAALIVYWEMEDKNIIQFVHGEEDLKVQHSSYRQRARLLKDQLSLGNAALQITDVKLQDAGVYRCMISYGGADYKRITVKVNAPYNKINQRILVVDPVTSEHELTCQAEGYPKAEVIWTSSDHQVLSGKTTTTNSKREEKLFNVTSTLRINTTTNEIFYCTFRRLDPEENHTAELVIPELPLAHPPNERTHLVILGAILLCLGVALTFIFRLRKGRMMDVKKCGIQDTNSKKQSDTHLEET
UniProt Q9GZV5: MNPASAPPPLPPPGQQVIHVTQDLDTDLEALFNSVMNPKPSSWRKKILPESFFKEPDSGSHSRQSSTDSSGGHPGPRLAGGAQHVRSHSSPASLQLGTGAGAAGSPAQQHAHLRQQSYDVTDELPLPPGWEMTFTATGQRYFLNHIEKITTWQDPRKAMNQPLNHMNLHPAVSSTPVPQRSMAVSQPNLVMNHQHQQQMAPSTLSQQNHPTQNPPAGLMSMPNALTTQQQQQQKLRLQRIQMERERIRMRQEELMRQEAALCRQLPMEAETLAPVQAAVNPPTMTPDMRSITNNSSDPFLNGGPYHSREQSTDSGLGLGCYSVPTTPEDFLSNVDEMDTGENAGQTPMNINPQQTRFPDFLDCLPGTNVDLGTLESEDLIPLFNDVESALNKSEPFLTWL

Target: T1, B4GALT1-HA (beta-1,4-galactosyltransferase 1, HA-tagged) (UniProt P15291)
T1 sequence: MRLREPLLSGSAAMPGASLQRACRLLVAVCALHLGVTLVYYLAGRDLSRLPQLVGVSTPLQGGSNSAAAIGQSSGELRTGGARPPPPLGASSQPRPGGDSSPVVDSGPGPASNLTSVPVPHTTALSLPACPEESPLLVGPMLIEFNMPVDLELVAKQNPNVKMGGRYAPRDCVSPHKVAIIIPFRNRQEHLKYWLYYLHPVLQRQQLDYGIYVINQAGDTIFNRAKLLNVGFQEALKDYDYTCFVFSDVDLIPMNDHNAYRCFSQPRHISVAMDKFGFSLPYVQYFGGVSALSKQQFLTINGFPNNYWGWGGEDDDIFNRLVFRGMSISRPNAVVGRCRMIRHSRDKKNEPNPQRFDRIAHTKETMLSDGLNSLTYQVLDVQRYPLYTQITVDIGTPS
Assay: co-IP; A549 cells transfected with B4GALT1-HA and PD-L1-Flag or TAZ-Flag for 24 h; lysates incubated with DDDDK-Tag mAb or anti-HA-Tag mAb at room temperature for 2 h, Protein A/G magnetic beads at 4 °C overnight; western blot

Substance | binding
PD-L1-Flag (programmed cell death ligand 1, Flag-tagged) (from UniProt Q9NZQ7 19-290) | binds
TAZ-Flag (WW domain-containing transcription regulator 1, Flag-tagged) (from UniProt Q9GZV5 1-400) | binds
